The source of these data is article PMC7819943, “Rice protein-binding microarrays: a tool to detect cis-acting elements near promoter regions in rice”.

The other results are listed elsewhere or left out.

This test addresses T1, OsSMF1 (Oryza sativa, UniProt Q6ZLB0 1-436).
T1 sequence: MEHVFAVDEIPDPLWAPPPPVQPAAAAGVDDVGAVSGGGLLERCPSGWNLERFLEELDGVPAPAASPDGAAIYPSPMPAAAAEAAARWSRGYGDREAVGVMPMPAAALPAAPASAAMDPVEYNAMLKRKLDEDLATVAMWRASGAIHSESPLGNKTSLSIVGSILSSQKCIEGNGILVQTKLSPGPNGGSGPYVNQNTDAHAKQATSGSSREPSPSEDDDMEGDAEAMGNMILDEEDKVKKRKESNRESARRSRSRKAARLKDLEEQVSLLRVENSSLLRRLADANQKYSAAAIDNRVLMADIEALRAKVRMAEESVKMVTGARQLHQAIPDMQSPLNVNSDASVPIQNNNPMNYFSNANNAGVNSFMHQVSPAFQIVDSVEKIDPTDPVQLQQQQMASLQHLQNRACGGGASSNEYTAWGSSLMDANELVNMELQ
In words: protein-binding microarray (RPBM); PBS, 2% BSA, 51.3 ng/ul salmon testes DNA, 50 uM zinc acetate, 200 nM TF, 25 C, 1 h; high values mean tight binding. Particulars: protein: recombinant; tags: N-terminal polyhistidine and DsRed monomer fusion (pET32a); chain copies: 2; label: CyDye5-dUTP incorporated in the synthesized complementary strand; 3' TTTTT single-stranded linker to array surface; dsDNA, one strand shown. Summed up: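 Binding signal is defined as the fluorescence intensity of each feature in arbitrary units, read on an Axon 4000B scanner. Transcription factors with N-terminal polyhistidine and DsRed fusions came from E. coli BL21-CodonPlus and were purified on Ni–NTA. They were incubated at 200 nM for 1 h at 25 °C on a custom Agilent array that had been made double-stranded with Cy5-dUTP, with 50 µM zinc acetate present, and the array was washed.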
As to “ATGGCAGAGCTCCTACCCACAAATGTGTAGCTTTCATATTCGGAGTCACCTAGTGCAG”, the binding signal is 7290 fluorescence intensity (a.u.).

Take “GAGAGGCGTGGGTTGATCGCAAAAGCAATAGGCTCCTCACCGGAGTCACCTAGTGCAG”: the binding signal is 3940 fluorescence intensity (a.u.).

Regarding “ATTAATGCCCCAGTATCTGTCATCAAATTGCCAAAGCCGTCGGAGTCACCTAGTGCAG”, the binding signal was 3210 fluorescence intensity (a.u.).

On to “ACTAGTTGGGGTGTATAAGGTATGAGTATGATATATATGGCGGAGTCACCTAGTGCAG”, for which the binding signal was 3400 fluorescence intensity (a.u.).

Turning to “ACGTAGACGGTCTCGTGAGTTGTGTTGTGTTGTGACTTGTCGGAGTCACCTAGTGCAG”, the binding signal was 4370 fluorescence intensity (a.u.).

“TATTTTATTATGACTTGATTCGTCATCAAATGTTGTTTAACGGAGTCACCTAGTGCAG”: the binding signal is 4940 fluorescence intensity (a.u.).

“AGCTGTTCGACTACGCCATTGTCGTCACTCACTCCACCGTCGGAGTCACCTAGTGCAG”: the binding signal was 3290 fluorescence intensity (a.u.).

On to “TTCTCTGTCACACAAAGCGGTGCAGCTCCACACGGCACCTCGGAGTCACCTAGTGCAG”, for which the binding signal was 3900 fluorescence intensity (a.u.).

Turning to “TTCTTCTGTGTTTGTCGATTCAGGGCTCCTTTGGAACGCACGGAGTCACCTAGTGCAG”, the binding signal is 31100 fluorescence intensity (a.u.).

For the sequence “CAACCGGGTGGAGGGGCCCACGCGGCGACGAGCGGCAGATCGGAGTCACCTAGTGCAG”, the binding signal is 3380 fluorescence intensity (a.u.).

On to “CAACTATTTTGTGGTGTCAGCAATTTATGGTGCTCTGTTCCGGAGTCACCTAGTGCAG”, for which the binding signal is 5750 fluorescence intensity (a.u.).

In the case of “GTCTCGACCATCCGCCACGTAGGAGTTCGTTGTTGCTTATCGGAGTCACCTAGTGCAG”, the binding signal was 7650 fluorescence intensity (a.u.).

As for “AGTGTAATACCAGCCACCTCCATTGACGCGTGGGCCCCAGCGGAGTCACCTAGTGCAG”, the binding signal is 3200 fluorescence intensity (a.u.).

Turning to “GCCCCGCCCCGCCCATCTTGTCAGATCCTTCTTCATAGTTCGGAGTCACCTAGTGCAG”, the binding signal was 3210 fluorescence intensity (a.u.).

For “AGATTTACACCTTAATATATCCGATGTTTGATTGTTCGTTCGGAGTCACCTAGTGCAG”, the binding signal is 31300 fluorescence intensity (a.u.).

With “TCTCTTCCCCTCTCCGCGCCGCCCTCCGCCCCGCCCGCGGCGGAGTCACCTAGTGCAG”, the binding signal is 3270 fluorescence intensity (a.u.).

In the case of “CTTTCTTCTTCTCACACAAGCACAGTGCCATTTGAATCATCGGAGTCACCTAGTGCAG”, the binding signal was 4480 fluorescence intensity (a.u.).

Regarding “TCCAAATAGCACGTACGCATGCATGCGTCCATGCCATCTCCGGAGTCACCTAGTGCAG”, the binding signal is 3270 fluorescence intensity (a.u.).

Regarding “GAGAGAGTGTAGGTTGCCGATGACGTTCCAAATATTGATCCGGAGTCACCTAGTGCAG”, the binding signal is 4490 fluorescence intensity (a.u.).

With “GAACGGCGTTTTATCCTTTTCCATGTCATCACTCAGGAGACGGAGTCACCTAGTGCAG”, the binding signal was 10600 fluorescence intensity (a.u.).

As for “ACTACTACCTCTTTGTACAAATGTATGACGTTGGTTAGTTCGGAGTCACCTAGTGCAG”, the binding signal was 4600 fluorescence intensity (a.u.).

As for “CAGAAAGTGTTGACTCGGATTTGACGATTGGGTCGTGGTTCGGAGTCACCTAGTGCAG”, the binding signal was 6630 fluorescence intensity (a.u.).

Regarding “GAGGACGGGAGGCTTCCTCGCCACGCCGCCCTCGCCGCCGCGGAGTCACCTAGTGCAG”, the binding signal was 3570 fluorescence intensity (a.u.).

As for “ATGGTGCTACCGTAAATATTTGCTAATAACAGATTAATCACGGAGTCACCTAGTGCAG”, the binding signal is 28700 fluorescence intensity (a.u.).

“CATAATATGGTAGTGTTGTTTCTCATGCAAGTATTGGCGTCGGAGTCACCTAGTGCAG”: the binding signal is 3160 fluorescence intensity (a.u.).

As to “CCGCGCCCGCCTCGCCGACTTTGGTCTCTCCCGCATCAATCGGAGTCACCTAGTGCAG”, the binding signal is 3400 fluorescence intensity (a.u.).

On to “TGACCTAATACATTCATGCTGACTAGCGTTTACGTGGCAACGGAGTCACCTAGTGCAG”, for which the binding signal was 14100 fluorescence intensity (a.u.).

“CTTCTCCCCTCGCCACCTCGGACTCGACCCCGTCCATGACCGGAGTCACCTAGTGCAG”: the binding signal was 4750 fluorescence intensity (a.u.).

“CGCCGATGACTCCGCGCCGCTCGGCCTCGTCGTCATCGGCCGGAGTCACCTAGTGCAG”: the binding signal is 5580 fluorescence intensity (a.u.).

In the case of “GCCCGGCCGCGCCCGCACATGCACGCGTGCACTCAGAGAACGGAGTCACCTAGTGCAG”, the binding signal is 3170 fluorescence intensity (a.u.).

In the case of “CAACTCGCGAGCCCGTCACGTCACGCTTCGCACCCACCAGCGGAGTCACCTAGTGCAG”, the binding signal was 8080 fluorescence intensity (a.u.).

For “GGAATGTGAGGGGATCCACGTCACACAAGTATATATATTACGGAGTCACCTAGTGCAG”, the binding signal was 10600 fluorescence intensity (a.u.).

Consider “GGATTGGCGGCGATGATGGCTCCTTCAAATCCGCTTCCTCCGGAGTCACCTAGTGCAG”, for which the binding signal was 7430 fluorescence intensity (a.u.).

In the case of “GGGAGGGAGCCAGAGCGGCGGGCGTGGGGTTGGAGGAGGGCGGAGTCACCTAGTGCAG”, the binding signal was 4200 fluorescence intensity (a.u.).

In the case of “AGAGAGTAGGCTGACCTGGACAAGCTGACACGTGAGGCCCCGGAGTCACCTAGTGCAG”, the binding signal is 11400 fluorescence intensity (a.u.).

“TGACCATTGGTCATGGGGTTGACGAACTGACACGCAGCAACGGAGTCACCTAGTGCAG”: the binding signal is 3320 fluorescence intensity (a.u.).

Take “TACTACACGTACTCCACGTATATACTACGGGGAAAGAAGACGGAGTCACCTAGTGCAG”: the binding signal was 4500 fluorescence intensity (a.u.).

On to “CCTCCTCCCATGGCTCCACTGGATTCCGGCGGCGTCACCGCGGAGTCACCTAGTGCAG”, for which the binding signal was 4550 fluorescence intensity (a.u.).

“ACGGCGACGTCGAGCGGGTTCTGCGGAACGTGGCGCAATGCGGAGTCACCTAGTGCAG”: the binding signal was 3570 fluorescence intensity (a.u.).

Regarding “TTTCGTGGAGATCGCTCGTGTCCTCCGCCGCGCAAGGCGCCGGAGTCACCTAGTGCAG”, the binding signal is 3590 fluorescence intensity (a.u.).

Take “AGACAATCCTTTTGATGCTAGTGATGACGAGGATACCGAACGGAGTCACCTAGTGCAG”: the binding signal was 4100 fluorescence intensity (a.u.).

Turning to “CGTCCTCAACCGTGACGCCGCCGCGCGCCTCACCATCTCGCGGAGTCACCTAGTGCAG”, the binding signal was 4920 fluorescence intensity (a.u.).

Take “CAGCCGCATCCTCCACCGTCCACGCCACGTCGGGGCTCGTCGGAGTCACCTAGTGCAG”: the binding signal was 8720 fluorescence intensity (a.u.).

Consider “TGGCTTATGATTATGACCTGGAAGTATAACTGTTTCTGGTCGGAGTCACCTAGTGCAG”, for which the binding signal was 3760 fluorescence intensity (a.u.).

As to “TCCTCTCAATCCGCACCGCCACGCCATACCTCCTTCCACTCGGAGTCACCTAGTGCAG”, the binding signal is 5060 fluorescence intensity (a.u.).

Regarding “CGCGCCATCGGCACGCTGGGCCAACACGGCACGGTGGACCCGGAGTCACCTAGTGCAG”, the binding signal is 3820 fluorescence intensity (a.u.).

With “CTGACATACGCTGTCACTGACATGCGGGACCCCTGGTTGACGGAGTCACCTAGTGCAG”, the binding signal is 3770 fluorescence intensity (a.u.).

On to “ATTCACTTTCTTGATTACGTAGAAGCTTCAGTGTCTATTCCGGAGTCACCTAGTGCAG”, for which the binding signal is 3810 fluorescence intensity (a.u.).

For “TGTGTTGAAAAGATAAACTAATAGTAGTGATATTACTCGACGGAGTCACCTAGTGCAG”, the binding signal was 3160 fluorescence intensity (a.u.).

Consider “AGCCAACACCGTCAGGTGGGCCCCGCGTACGGGCCCACCACGGAGTCACCTAGTGCAG”, for which the binding signal is 3460 fluorescence intensity (a.u.).

As to “CACTGTAGTAGTGAGCCGCTTTGATGAAGTGGCGAAGTGGCGGAGTCACCTAGTGCAG”, the binding signal was 3280 fluorescence intensity (a.u.).

Consider “GACGTACCTTACTTCAAGACTTGAAGTGGCCACGCAGTGGCGGAGTCACCTAGTGCAG”, for which the binding signal was 3400 fluorescence intensity (a.u.).

On to “TTGGAAGGTATGTGTGGCTGCTTCTTCCTAGCAATTGGATCGGAGTCACCTAGTGCAG”, for which the binding signal was 3250 fluorescence intensity (a.u.).

For “TAGTTATCGGCGCGCCCTCGTGTCTGCCCGAGCTGTTCTTCGGAGTCACCTAGTGCAG”, the binding signal is 4300 fluorescence intensity (a.u.).
